Reference: the supplement of paper PMC10849652
This is one part of the list.

The chains behind the UniProt entries cited, without tags or fusion partners. Where a name states a change or a piece, a line headed by the entry shows the natural chain unless it says otherwise.
UniProt Q8WWC4: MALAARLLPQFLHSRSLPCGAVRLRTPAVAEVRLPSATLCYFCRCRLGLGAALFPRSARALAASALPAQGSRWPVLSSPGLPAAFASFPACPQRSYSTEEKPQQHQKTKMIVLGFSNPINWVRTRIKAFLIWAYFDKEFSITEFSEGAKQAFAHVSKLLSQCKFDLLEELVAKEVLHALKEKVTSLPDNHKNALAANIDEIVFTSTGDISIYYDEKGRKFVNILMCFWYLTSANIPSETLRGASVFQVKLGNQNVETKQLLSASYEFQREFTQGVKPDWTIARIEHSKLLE
UniProt Q3KQU3: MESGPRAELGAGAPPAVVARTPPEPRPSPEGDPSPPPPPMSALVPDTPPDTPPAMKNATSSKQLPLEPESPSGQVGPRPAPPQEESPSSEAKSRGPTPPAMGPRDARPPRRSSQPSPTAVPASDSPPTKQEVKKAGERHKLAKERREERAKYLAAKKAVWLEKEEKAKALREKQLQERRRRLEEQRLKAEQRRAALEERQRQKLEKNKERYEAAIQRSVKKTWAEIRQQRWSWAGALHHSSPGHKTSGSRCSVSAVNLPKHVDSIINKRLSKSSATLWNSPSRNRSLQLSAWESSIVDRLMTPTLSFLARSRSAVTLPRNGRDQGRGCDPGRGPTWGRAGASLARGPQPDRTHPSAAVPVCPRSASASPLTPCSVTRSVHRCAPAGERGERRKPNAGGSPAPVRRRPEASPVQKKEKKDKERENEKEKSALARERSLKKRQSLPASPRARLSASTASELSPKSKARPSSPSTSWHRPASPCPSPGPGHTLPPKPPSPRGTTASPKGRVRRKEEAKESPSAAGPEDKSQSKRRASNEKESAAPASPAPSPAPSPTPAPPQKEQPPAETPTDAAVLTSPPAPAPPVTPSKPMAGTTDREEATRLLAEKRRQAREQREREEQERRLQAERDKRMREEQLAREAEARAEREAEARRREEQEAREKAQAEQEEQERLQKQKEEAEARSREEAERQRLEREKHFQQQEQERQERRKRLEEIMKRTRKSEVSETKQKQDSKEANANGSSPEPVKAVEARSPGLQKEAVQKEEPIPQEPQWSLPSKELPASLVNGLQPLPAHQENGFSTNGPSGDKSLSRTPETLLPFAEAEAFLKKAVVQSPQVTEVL
UniProt O43318: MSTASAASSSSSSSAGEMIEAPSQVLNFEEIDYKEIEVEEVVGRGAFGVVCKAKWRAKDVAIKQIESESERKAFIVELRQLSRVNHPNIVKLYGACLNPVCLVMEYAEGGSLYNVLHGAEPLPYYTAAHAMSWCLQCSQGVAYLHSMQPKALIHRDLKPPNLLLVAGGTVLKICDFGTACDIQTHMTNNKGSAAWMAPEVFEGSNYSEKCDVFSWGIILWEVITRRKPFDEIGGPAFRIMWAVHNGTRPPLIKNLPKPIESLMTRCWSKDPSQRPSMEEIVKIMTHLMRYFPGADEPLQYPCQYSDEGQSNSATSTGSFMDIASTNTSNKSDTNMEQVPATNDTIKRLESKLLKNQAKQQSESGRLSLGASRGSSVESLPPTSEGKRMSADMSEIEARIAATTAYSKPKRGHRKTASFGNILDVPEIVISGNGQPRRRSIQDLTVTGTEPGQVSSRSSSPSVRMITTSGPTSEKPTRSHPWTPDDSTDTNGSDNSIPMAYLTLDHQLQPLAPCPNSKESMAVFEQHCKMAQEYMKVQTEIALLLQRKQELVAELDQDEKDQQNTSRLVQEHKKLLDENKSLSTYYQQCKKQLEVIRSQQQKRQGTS
UniProt P45985: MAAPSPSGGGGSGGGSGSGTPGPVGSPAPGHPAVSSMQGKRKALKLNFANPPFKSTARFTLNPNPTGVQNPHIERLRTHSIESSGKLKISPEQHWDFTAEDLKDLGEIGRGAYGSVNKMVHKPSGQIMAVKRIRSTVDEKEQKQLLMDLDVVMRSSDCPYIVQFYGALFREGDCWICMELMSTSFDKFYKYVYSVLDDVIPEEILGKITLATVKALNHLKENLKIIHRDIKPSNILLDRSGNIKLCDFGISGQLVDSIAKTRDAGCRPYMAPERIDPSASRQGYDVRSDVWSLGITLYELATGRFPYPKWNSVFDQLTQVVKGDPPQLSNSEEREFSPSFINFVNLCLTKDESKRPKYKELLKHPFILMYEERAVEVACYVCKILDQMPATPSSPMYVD
UniProt Q9NTJ4: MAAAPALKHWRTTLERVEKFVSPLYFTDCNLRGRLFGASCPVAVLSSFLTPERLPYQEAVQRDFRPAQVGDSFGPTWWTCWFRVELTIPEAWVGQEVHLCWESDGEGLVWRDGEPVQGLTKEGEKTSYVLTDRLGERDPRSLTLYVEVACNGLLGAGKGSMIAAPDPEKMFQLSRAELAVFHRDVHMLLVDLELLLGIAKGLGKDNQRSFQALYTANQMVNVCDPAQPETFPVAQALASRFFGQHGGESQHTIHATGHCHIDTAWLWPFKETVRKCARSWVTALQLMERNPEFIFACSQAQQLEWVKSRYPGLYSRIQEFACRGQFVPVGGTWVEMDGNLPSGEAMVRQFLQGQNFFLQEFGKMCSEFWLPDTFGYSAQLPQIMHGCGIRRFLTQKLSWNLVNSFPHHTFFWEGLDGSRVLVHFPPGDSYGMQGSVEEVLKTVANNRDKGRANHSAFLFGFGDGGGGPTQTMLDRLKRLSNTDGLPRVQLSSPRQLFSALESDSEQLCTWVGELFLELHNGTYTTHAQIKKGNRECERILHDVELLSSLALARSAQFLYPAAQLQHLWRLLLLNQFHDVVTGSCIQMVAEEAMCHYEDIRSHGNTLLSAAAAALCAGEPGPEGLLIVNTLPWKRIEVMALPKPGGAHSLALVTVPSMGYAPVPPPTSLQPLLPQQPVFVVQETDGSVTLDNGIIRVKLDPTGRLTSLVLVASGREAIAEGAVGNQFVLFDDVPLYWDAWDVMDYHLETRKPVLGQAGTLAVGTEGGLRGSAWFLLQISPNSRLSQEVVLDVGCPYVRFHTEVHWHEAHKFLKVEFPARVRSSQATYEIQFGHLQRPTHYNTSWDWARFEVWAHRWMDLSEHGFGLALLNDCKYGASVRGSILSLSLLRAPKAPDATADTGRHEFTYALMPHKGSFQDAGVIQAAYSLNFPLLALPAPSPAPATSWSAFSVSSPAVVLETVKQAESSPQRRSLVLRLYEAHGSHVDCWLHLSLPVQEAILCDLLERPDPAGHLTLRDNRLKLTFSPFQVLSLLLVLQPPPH
UniProt P49641: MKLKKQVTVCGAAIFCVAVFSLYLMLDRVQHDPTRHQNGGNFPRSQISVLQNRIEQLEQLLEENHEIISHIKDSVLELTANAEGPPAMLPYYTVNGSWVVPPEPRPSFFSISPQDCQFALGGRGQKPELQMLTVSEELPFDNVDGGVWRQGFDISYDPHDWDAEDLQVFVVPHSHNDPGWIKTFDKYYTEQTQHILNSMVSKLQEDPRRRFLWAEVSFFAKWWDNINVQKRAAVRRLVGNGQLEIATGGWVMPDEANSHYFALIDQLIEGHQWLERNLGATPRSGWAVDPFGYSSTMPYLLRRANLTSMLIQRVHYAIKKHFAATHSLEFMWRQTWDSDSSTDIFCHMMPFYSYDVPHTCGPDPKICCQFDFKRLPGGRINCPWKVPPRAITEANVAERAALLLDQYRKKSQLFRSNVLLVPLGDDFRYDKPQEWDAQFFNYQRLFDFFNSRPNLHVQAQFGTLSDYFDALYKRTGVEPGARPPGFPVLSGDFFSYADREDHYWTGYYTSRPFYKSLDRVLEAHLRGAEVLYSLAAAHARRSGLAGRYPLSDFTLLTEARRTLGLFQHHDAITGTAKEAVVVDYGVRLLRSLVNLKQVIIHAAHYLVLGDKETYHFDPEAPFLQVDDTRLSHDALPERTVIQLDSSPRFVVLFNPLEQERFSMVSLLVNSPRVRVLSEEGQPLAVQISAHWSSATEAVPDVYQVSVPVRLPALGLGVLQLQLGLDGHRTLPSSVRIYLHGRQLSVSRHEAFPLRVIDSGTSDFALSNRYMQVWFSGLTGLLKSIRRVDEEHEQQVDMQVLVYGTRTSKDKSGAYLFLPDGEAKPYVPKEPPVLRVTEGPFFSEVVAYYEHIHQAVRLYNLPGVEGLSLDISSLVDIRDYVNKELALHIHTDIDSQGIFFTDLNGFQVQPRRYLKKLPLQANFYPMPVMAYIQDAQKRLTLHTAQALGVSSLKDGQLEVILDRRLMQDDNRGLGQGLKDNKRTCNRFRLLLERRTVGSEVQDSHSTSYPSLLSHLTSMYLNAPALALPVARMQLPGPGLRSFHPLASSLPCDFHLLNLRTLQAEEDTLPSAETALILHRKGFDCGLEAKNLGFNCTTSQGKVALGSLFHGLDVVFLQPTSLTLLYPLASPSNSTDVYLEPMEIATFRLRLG
UniProt Q9NQ48: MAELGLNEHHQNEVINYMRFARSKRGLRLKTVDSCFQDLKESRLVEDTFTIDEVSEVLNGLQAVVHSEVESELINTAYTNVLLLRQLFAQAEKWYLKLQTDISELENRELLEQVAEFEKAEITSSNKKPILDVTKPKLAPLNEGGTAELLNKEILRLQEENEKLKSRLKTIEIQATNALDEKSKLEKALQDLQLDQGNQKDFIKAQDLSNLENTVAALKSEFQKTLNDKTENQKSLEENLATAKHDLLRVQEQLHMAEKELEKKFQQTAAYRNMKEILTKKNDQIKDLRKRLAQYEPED
UniProt P45983: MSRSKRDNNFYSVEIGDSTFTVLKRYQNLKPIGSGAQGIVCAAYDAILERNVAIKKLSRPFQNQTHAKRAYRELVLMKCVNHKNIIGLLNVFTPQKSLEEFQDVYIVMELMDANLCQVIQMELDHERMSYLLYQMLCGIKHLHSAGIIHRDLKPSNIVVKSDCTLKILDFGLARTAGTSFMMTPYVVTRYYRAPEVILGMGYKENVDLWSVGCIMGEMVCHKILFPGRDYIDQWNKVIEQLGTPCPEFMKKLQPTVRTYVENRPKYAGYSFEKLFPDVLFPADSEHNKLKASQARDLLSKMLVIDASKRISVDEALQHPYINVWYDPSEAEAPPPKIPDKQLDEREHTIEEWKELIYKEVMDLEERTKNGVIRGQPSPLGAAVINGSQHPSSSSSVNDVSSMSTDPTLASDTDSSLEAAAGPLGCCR
UniProt Q9UI95, whole entry, looked up: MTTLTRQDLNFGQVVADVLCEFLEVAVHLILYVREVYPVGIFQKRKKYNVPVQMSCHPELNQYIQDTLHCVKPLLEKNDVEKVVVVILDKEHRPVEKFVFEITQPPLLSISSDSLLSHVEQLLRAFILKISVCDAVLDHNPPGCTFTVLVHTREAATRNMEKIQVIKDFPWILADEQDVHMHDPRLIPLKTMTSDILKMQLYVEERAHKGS
UniProt P29966: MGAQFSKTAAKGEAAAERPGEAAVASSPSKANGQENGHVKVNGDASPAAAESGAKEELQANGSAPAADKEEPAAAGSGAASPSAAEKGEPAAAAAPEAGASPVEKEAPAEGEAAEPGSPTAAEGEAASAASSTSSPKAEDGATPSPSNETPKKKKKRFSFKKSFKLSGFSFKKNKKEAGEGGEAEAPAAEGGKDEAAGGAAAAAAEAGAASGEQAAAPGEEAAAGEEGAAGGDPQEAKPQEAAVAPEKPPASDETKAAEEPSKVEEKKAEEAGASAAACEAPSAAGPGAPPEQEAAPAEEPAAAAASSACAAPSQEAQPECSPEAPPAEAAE
UniProt Q9H063: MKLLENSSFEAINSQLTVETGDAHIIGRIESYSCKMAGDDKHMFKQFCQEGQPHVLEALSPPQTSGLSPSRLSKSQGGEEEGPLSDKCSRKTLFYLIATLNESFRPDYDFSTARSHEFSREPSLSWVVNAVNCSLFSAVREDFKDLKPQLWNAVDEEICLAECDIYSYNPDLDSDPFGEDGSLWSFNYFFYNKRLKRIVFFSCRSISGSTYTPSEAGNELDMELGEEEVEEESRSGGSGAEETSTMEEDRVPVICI
UniProt P28482, whole entry, looked up: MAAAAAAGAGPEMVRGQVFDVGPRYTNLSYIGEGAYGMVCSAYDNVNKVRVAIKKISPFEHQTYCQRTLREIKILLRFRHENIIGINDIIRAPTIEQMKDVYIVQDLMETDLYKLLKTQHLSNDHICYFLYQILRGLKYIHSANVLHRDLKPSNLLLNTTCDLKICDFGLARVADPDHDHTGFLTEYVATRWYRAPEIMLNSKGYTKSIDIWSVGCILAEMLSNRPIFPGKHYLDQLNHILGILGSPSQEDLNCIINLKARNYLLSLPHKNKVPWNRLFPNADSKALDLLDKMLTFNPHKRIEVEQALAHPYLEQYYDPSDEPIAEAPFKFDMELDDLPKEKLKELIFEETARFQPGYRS

compound: CC1=C(C2=C(C=C1)C(=O)C3=CC=CC=C3N2CCCN)C; test: log2 fold change, soluble protein after heating vs DMSO (PISA); higher = thermal stabilisation; K562 lysate, 10 uM; active = over 0.2 and 3.5 SD of the protein, either way, in both replicates (recomputed)
Outline: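 Log-two fold change in thermal stability relative to solvent controls is reported from duplicates. For each sample, crude K562 extract from dounce-homogenised pellets in PBS pH 7.4 with 1 mM MgCl2, at 1 mg/mL protein, was treated with 10 μM compound for 30 min. Aliquots heated for 3 min across 48°C-58°C were pooled, brought to 0.5% NP-40 at 4°C and cleared at 21,000xg for 90 min. The supernatant was quantified by TMTpro 16plex LC-MS/MS with channel sums equalised.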

| Target | log2 fold change |
| --- | --- |
| MAP1S (UniProt Q66K74) | inactive: -0.021 |
| MACROD1 (UniProt Q9BQ69) | inactive: 0.017 |
| MAPK14 (UniProt Q16539) | inactive: -0.026 |
| MAIP1 (UniProt Q8WWC4) | inactive: -0.007 |
| MAP3K20 isoform 2 (UniProt Q9NYL2) | inactive: 0.028 |
| LYAR (UniProt Q9NX58) | inactive: -0.012 |
| MARS (UniProt P56192) | inactive: -0.001 |
| MAP7D1 (UniProt Q3KQU3) | inactive: -0.06 |
| MAP2K2 (UniProt P36507) | inactive: -0.033 |
| LTN1 isoform 3 (UniProt O94822) | inactive: -0.009 |
| MAT2A (UniProt P31153) | inactive: -0.004 |
| LYSMD1 (UniProt Q96S90) | inactive: 0.009 |
| MAPRE2 (UniProt Q15555) | inactive: -0.007 |
| MAP3K7 (UniProt O43318) | inactive: -0.007 |
| LYN (UniProt P07948) | inactive: -0.043 |
| MAP11 (UniProt Q8WVR3) | inactive: -0.063 |

Reformatted: results already given
Target,log2 fold change
MAP2K2 (UniProt P36507),inactive: -0.033
LTN1 isoform 3 (UniProt O94822),inactive: -0.009
MAT2A (UniProt P31153),inactive: -0.004

More records.

| Target | log2 fold change |
| --- | --- |
| MAP2K4 isoform 2 (UniProt P45985) | inactive: 0.006 |
| MAN2C1 isoform 4 (UniProt Q9NTJ4) | inactive: -0.069 |
| MAN2A2 (UniProt P49641) | inactive: 0.013 |
| LZTFL1 (UniProt Q9NQ48) | inactive: 0.012 |
| MAPK8 isoform 3 (UniProt P45983) | inactive: -0.017 |
| MACF1 isoform 3 (UniProt Q9UPN3) | inactive: 0.004 |
| MAN2A1 (UniProt Q16706) | inactive: 0.037 |
| MAN2B1 (UniProt O00754) | inactive: -0.008 |
| MAP2K1 (UniProt Q02750) | inactive: -0.04 |
| MAP4 isoform 5 (UniProt P27816) | inactive: 0.019 |
| MAD2L2 (UniProt Q9UI95) | inactive: -0.059 |
| MAP3K20 (UniProt Q9NYL2) | inactive: 0.049 |
| MARCKS (UniProt P29966) | inactive: -0.027 |
| MAP4 (UniProt E7EVA0) | inactive: 0.008 |
| MAF1 (UniProt Q9H063) | inactive: -0.034 |
| MAPK1 (UniProt P28482) | inactive: 0.023 |
